The record followed here is paper PMC9424261.

By UniProt entry, the sequences of proteins in these tests, tags left out.
UniProt Q00987: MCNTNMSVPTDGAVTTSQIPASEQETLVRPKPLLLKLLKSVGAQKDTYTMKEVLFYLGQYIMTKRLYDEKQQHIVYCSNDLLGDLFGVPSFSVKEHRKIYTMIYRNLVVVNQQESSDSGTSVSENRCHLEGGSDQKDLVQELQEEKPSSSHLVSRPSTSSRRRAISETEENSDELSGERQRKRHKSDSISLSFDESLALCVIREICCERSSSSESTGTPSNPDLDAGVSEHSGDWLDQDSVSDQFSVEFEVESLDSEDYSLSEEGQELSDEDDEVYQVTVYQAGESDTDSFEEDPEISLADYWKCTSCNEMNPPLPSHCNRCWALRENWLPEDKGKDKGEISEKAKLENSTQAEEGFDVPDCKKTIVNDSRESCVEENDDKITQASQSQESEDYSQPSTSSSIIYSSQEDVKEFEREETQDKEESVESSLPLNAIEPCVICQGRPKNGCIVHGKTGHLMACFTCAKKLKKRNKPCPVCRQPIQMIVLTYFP
UniProt Q86TM6: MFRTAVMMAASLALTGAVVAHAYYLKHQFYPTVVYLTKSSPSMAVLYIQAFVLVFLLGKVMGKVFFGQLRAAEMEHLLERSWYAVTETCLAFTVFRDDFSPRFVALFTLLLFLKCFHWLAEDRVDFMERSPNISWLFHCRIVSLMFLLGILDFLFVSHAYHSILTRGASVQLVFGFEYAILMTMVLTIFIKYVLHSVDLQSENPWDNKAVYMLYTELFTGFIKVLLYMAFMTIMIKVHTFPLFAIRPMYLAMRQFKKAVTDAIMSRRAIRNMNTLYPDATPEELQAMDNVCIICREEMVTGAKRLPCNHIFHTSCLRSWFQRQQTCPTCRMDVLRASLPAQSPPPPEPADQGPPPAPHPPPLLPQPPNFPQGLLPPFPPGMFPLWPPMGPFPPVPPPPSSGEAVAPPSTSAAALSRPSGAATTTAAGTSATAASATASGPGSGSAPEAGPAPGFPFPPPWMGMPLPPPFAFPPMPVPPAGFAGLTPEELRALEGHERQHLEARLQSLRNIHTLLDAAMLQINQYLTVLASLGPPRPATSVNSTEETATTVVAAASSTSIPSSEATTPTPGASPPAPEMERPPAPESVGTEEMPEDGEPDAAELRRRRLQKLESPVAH

The target in test [1] is T1, glutathione synthetase (GSS) (human (endogenous in Bel-7402 and Bel-7404)) (UniProt P48637).
T1 sequence: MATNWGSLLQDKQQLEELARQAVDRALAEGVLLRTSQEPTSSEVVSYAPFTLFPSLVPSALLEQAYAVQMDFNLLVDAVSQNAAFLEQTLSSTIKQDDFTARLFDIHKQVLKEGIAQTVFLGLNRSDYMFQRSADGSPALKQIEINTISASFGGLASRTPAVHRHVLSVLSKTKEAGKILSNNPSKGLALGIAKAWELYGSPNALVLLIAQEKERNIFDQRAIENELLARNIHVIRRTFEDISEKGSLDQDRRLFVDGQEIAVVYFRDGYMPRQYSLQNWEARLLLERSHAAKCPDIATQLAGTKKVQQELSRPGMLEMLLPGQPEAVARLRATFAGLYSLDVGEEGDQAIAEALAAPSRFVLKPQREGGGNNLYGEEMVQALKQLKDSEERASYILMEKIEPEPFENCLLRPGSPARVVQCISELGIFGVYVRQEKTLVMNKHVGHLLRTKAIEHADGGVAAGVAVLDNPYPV
In words: co-IP; co-IP from tissue of Bel-7402 xenograft tumors of nude mice, immunoblot. (Immunoblotting shows a protein as a band on a membrane.)

Test [2] deals with T1, glutathione synthetase (GSS) (human (endogenous in Bel-7402 and Bel-7404)). The test is described as follows: co-IP; reciprocal IP of endogenous proteins from lysates of Bel-7402 and Bel-7404 cells, wild-type or with HERPUD1 overexpressed; antibody overnight at 4 °C, protein A/G beads, immunoblot.

These are yes or no findings as the source states them, for the method shown. In cells and extracts the contact can be indirect. Some binding calls cover weakened binding; strength is not graded here.

For “murine double minute 2 (MDM2) (from UniProt Q00987 1-491) (enzyme)”, the binding result in test [1] and in test [2] was “binds” throughout. In the case of “SYVN1 (from UniProt Q86TM6 1-617) (enzyme)”, in test [2], the binding entry was “no binding”.
